Laboratory results reported in patent publication US20140044713A1.
Results are given in words; binding and its absence hold for the method and conditions named. For some assays here: In cells and extracts the contact can be indirect. Some entries that bind do so weakly or less than the wild type. For some assays here: Sequences can lack the tags named with a protein.

Chains of the proteins cited; added tags and fusions are not shown. Lines headed by an entry give the natural chain unless they say otherwise; changes in a name come on top. Residues count along the entry.
UniProt Q9BXB1, residues 25-951: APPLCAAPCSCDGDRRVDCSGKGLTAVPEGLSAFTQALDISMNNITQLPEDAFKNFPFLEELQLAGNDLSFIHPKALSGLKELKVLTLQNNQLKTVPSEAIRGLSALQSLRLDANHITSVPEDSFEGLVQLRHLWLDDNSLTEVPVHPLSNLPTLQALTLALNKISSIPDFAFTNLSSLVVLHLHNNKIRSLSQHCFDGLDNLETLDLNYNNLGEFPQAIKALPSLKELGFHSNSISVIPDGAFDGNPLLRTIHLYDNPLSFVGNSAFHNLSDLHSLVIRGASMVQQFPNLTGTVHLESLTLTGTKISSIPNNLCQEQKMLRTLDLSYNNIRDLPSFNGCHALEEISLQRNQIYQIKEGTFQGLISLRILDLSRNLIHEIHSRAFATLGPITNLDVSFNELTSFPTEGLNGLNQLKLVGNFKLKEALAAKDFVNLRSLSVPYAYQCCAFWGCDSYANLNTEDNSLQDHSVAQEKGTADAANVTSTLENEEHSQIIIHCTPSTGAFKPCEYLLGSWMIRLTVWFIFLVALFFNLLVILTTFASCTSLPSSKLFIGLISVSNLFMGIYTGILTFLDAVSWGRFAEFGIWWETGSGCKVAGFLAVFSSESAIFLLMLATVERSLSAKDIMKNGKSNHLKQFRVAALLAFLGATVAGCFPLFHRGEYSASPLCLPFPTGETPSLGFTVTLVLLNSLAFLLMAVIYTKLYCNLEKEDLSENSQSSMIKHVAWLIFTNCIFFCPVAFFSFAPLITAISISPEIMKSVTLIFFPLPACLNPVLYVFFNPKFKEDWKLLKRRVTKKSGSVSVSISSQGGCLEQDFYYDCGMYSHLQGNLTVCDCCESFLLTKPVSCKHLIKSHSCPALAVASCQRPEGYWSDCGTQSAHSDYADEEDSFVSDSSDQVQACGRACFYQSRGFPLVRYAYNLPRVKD
UniProt Q2MKA7: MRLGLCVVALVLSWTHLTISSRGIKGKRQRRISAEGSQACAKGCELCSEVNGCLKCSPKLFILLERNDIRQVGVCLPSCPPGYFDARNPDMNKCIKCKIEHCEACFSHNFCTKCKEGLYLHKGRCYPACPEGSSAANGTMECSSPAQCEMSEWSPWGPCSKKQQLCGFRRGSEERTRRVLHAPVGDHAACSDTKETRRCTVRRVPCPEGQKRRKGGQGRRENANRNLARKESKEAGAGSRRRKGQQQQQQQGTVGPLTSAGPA

Key:
[1] = target: FLAG/HA-tagged Lgr4 (human) (UniProt Q9BXB1); assay: Rspo1-Fc on transfected HEK293T cells, proteinG pull-down, FLAG western blot
[2] = target: T1, FLAG/HA-tagged Lgr5 (human) (UniProt O75473); assay: as above
T1 sequence (looked up): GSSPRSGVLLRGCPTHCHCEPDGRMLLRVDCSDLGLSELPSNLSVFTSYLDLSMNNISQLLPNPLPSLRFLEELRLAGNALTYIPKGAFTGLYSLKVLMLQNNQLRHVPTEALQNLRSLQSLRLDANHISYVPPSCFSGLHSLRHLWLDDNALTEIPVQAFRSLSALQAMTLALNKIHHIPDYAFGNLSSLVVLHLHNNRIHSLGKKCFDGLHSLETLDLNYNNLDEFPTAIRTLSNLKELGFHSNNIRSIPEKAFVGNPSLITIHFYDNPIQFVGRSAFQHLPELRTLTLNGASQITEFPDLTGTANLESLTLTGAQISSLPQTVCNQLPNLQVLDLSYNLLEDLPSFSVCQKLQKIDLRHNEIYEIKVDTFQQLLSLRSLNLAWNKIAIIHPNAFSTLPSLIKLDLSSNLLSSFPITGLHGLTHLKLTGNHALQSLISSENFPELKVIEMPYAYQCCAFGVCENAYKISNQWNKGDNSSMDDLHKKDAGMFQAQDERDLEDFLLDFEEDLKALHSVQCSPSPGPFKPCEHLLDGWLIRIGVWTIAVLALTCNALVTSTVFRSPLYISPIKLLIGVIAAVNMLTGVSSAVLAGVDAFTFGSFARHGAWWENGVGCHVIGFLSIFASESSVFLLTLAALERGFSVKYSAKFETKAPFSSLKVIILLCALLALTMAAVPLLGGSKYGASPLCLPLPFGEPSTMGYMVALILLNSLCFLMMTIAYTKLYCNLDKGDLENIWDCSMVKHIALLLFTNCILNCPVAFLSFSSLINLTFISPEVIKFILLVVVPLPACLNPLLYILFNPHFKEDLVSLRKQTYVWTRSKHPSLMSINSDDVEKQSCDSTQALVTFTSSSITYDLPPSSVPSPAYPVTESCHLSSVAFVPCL

[3] = target: T2, FLAG/HA-tagged Lgr6 (human) (UniProt Q9HBX8); assay: as above
T2 sequence (looked up): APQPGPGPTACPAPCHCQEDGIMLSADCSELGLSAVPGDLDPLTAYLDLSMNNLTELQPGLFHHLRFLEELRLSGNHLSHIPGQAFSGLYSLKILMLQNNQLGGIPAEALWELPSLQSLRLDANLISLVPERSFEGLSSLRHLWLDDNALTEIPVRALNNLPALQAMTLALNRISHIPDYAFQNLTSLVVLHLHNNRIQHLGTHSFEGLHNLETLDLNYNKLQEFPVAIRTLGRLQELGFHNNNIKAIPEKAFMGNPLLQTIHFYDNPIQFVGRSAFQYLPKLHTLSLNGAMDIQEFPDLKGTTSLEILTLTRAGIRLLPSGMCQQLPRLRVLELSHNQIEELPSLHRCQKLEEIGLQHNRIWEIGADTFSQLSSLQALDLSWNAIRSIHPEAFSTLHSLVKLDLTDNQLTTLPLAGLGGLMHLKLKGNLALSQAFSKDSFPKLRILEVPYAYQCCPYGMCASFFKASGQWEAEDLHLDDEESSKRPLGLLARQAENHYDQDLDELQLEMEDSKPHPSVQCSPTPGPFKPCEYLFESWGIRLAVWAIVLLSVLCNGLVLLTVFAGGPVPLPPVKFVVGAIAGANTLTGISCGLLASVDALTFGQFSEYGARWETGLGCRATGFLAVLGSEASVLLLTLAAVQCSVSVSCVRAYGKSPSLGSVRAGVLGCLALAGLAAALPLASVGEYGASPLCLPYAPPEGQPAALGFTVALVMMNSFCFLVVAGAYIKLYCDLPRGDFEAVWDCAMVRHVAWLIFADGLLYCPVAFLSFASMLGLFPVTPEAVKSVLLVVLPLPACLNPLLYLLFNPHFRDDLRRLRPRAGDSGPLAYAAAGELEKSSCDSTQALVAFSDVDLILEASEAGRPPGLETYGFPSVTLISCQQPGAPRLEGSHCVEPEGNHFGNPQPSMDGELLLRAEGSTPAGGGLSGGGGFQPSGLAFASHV

[4] = target: T1, FLAG/HA-tagged Lgr5 (human); assay: Rspo1-Fc pull-down from HEK293T cells transfected with full-length or deleted Lgr5, western blot
[5] = target: FLAG/HA-tagged Lgr4 (human) (UniProt Q9BXB1); assay: Rspondin-Fc pull-down from transfected HEK293T cells, western blot
[6] = target: T1, FLAG/HA-tagged Lgr5 (human); assay: as above
[7] = target: T2, FLAG/HA-tagged Lgr6 (human); assay: as above
[8] = target: FLAG/HA-tagged Lgr4 (human) (UniProt Q9BXB1); assay: Rspo1-Fc (˜1 µg/ml) on transfected HEK293T cells, proteinG pull-down, FLAG western blot
[9] = target: T1, FLAG/HA-tagged Lgr5 (human); assay: as above
[10] = target: T2, FLAG/HA-tagged Lgr6 (human); assay: as above
[11] = target: T1, FLAG/HA-tagged Lgr5 (human); assay: right panels: lysates of cells expressing Lgr5-FH incubated with Rspo1 after cell lysis, FLAG immunoprecipitation, anti-hIgG-Fc Western blot (anti-FLAG blot below shows the precipitated Lgr5 proteins)
[12] = target: T3, LGR5-478 (exo domain of LGR5 without the CRL region) (UniProt O75473); assay: gel filtration of purified proteins (LGR5-478 incubated with the antibody)
T3 sequence (looked up): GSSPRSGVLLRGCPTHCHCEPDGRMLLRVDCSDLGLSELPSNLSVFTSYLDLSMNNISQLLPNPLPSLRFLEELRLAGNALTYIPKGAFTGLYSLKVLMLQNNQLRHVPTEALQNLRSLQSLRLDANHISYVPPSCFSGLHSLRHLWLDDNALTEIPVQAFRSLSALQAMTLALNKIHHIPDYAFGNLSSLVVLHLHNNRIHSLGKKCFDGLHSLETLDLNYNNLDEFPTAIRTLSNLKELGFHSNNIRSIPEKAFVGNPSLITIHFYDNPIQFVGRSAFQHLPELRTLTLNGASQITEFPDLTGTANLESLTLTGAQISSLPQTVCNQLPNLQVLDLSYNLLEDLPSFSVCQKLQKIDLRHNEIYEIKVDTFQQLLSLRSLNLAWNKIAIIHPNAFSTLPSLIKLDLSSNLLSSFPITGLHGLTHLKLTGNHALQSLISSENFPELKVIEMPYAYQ

[13] = target: T4, LGR5-543 (full exo domain of LGR5: CRL + Leucine rich repeats) (UniProt O75473); assay: gel filtration of purified proteins
T4 sequence (looked up): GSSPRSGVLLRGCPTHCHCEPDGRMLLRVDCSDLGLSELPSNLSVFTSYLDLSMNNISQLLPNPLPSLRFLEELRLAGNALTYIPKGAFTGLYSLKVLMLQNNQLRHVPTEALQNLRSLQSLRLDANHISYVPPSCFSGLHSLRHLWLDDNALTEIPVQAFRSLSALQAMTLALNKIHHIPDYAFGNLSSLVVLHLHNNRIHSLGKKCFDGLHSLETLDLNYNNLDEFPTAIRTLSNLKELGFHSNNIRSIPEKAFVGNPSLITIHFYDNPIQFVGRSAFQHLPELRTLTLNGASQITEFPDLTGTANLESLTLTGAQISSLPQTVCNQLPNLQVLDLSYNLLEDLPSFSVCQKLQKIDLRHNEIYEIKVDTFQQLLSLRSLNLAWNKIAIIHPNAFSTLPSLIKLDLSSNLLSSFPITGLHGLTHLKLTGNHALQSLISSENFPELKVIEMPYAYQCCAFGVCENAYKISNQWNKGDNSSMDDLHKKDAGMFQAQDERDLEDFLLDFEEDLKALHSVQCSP

[14] = target: T3, LGR5-478 (exo domain of LGR5 without the CRL region); assay: gel filtration of purified proteins

| binding [1] | binding [2] | binding [3] | binding [4] | binding [5] | binding [6] | binding [7] | binding [8] | binding [9] | binding [10] | binding [11] | binding [12] | binding [13] | binding [14] | Substance |
| --- | --- | --- | --- | --- | --- | --- | --- | --- | --- | --- | --- | --- | --- | --- |
| binds | binds | binds | binds | binds | binds | binds | binds | binds | binds | binds | – | – | – | Rspo1-Fc fusion protein (from UniProt Q2MKA7 21-263) |
| – | – | – | – | – | – | – | – | – | – | – | binds | binds | binds | RSp1 (purified Rspondin1 of the gel filtration experiment, FIG. 26) (from UniProt Q2MKA7 21-263) (ligand) |
